Results of single-concentration screens

Mtb cholesterol medium: 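Phenotypic screen: M. tuberculosis growth, cholesterol and DPPC medium, 4 days; the read-out is not stated. Tested at 50 µM. Higher reads as more growth inhibition (inferred: compounds with an IC50 in retests scored well above the rest). Size under these conditions: about 69,000 compounds, about 370 of them at 50% or above in at least one test.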
Mtb glucose medium: 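Whole-cell growth test on Mycobacterium tuberculosis, read after 3 days in glucose-containing 7H9 medium; the read-out is not stated. Tested at 50 µM. Direction is inferred from retests: higher values go with more growth inhibition. About 69,000 compounds were tested under these conditions; 1.1% (about 760) showed 50% or more at least once.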

Values are the deposited “Percent Effect”, in %. How 0% and 100% were set is not recorded. Most values in the screen are low, and negative values occur. This is an unselected part of the compounds tested. Two or more numbers in one place are separate tests of the same structure; such repeats can differ widely.

- CCCc1nnc2sc(C3CCN(CC)CC3)nn12 : Mtb cholesterol medium: -6.44%; Mtb glucose medium: -5.595% & 6.499%
- CCC(C)Oc1cc(C(=O)Nc2nc(C)ns2)ccn1 (centres unmarked) : Mtb cholesterol medium: 23.55%; Mtb glucose medium: 14.37%
- O=C(O)C(F)(F)F.O=C(O)C(F)(F)F.O=C(O)C(F)(F)F.[H][C@@]12CN(CCOC)C[C@]1([H])[C@@H](OC)CCN2Cc1ccncc1 : Mtb cholesterol medium: 6.963%; Mtb glucose medium: -10.95%
- Fc1cccc(CNCC2OCCc3cn(CC4CCOCC4)nc32)c1.O=C(O)C(F)(F)F (centres unmarked) : Mtb cholesterol medium: -19.12%; Mtb glucose medium: 14.69%
- Cc1nc(C2CCCN2CC(=O)N2CCCc3ccccc32)no1 (centres unmarked) : Mtb cholesterol medium: 8.124%; Mtb glucose medium: 25.97%
- CCN1CCC(N[C@@H]2CC[C@@H]2NC(=O)Cc2csc(C)n2)CC1 : Mtb cholesterol medium: 7.104%; Mtb glucose medium: 23.44%
- COC(=O)c1sccc1S(=O)(=O)NCCC(O)c1ccoc1 (centres unmarked) : Mtb cholesterol medium: -2.365%; Mtb glucose medium: 6.798% & 2.391%
- CCc1ncncc1C(=O)NCCNS(=O)(=O)c1ccc(C)cc1 : Mtb cholesterol medium: -6.816%; Mtb glucose medium: 21.12%
- CO[C@H]1CCN(C(=O)Cc2ccc(F)cc2)[C@H]1Cc1ccncc1 : Mtb cholesterol medium: 5.077%; Mtb glucose medium: 5.402%
- O=C(O)C1CN(Cc2cccc(-c3ccccn3)c2)CCO1 (centres unmarked) : Mtb cholesterol medium: 11.75%; Mtb glucose medium: 11.24%
- CNC(=O)c1cnc(C)nc1CCNC(=O)CCc1ccccc1 : Mtb cholesterol medium: -12.44%; Mtb glucose medium: 4.629%
- COC(=O)CC(NC(=O)c1ccc(OC)cc1OC)c1cccs1 (centres unmarked) : Mtb cholesterol medium: -26.46%; Mtb glucose medium: -17.55%
- CCOc1cc(N2CCN(C(=O)c3ccc(OC)cc3)CC2)nc(C)n1 : Mtb cholesterol medium: -19.05%; Mtb glucose medium: -10.32%
- COc1ccc(Cl)cc1C(C(=O)O)N(C)Cc1ccon1 (centres unmarked) : Mtb cholesterol medium: -10.32% & -21.83%; Mtb glucose medium: -34.45%
- Cc1ccnc(CC(C)N(C)Cc2ccc3c(c2)CCO3)c1 (centres unmarked) : Mtb cholesterol medium: 0.6476%; Mtb glucose medium: -0.4656%
- Cc1cnc(N2CC3(CCN(Cc4cccnc4)C3)C2)nc1.O=C(O)C(F)(F)F.O=C(O)C(F)(F)F : Mtb cholesterol medium: -8.348%; Mtb glucose medium: 14.38%
- O=C(C(CNCc1ccco1)c1ccccc1)N1CCOCC1 (centres unmarked) : Mtb cholesterol medium: -5.155%; Mtb glucose medium: -3.54%
- O=C(N1CCSCC1)C1(O)Cc2ccccc2C1 : Mtb cholesterol medium: -16.16%; Mtb glucose medium: 2.95%
- O=C(Nc1ccccc1F)NC1(CO)CCOCC1 : Mtb cholesterol medium: 6.098%; Mtb glucose medium: -3.622% & 15.55%
- O=C(CCc1cn[nH]c1)N1CCC(C2CCN(c3ncccn3)CC2)C1 (centres unmarked) : Mtb cholesterol medium: 21.93%; Mtb glucose medium: 41.05%
- O=C(C1=COCCO1)N1CC(Oc2nc3c(Cl)cccc3s2)C1 : Mtb cholesterol medium: 18.18%; Mtb glucose medium: 15.17% & 18.03%
- O=C(O)C(F)(F)F.O=C(O)C(F)(F)F.O=C(O)C(F)(F)F.[H][C@]12CCN(Cc3cccnc3)[C@@]1([H])CC[C@H](COCc1ccccn1)O2 : Mtb cholesterol medium: -6.452% & 28.15%; Mtb glucose medium: -17.06%
- Cc1cc2nc(SCC(=O)N3CCOCC3)n(CC(C)C)c(=O)c2[nH]1 : Mtb cholesterol medium: -15.4%; Mtb glucose medium: -4.233% & -31.33%
- [H][C@@]12COC[C@@H](CC(=O)NCCOC)[C@]1([H])CN(C(=O)COC)C2 : Mtb cholesterol medium: 0.04569%; Mtb glucose medium: 19.03%
- CCCc1nnc(N2CC[C@@](O)(C3CCOCC3)[C@H](C)C2)s1 : Mtb cholesterol medium: -34.09%; Mtb glucose medium: -4.658%
- O=C(CC1CC1)N1Cc2nccn2CC(Cn2ncccc2=O)C1 (centres unmarked) : Mtb cholesterol medium: -6.724%; Mtb glucose medium: -10.96%
- Cc1nc(C)n(CC2CCCN2CC(=O)NCCc2cccs2)n1 (centres unmarked) : Mtb cholesterol medium: 17%; Mtb glucose medium: 4.72%
- Cc1ccc(CN2CCC3(CC2)CCN(Cc2ccco2)CC3)cc1.O=C(O)C(F)(F)F.O=C(O)C(F)(F)F : Mtb cholesterol medium: 3.759%; Mtb glucose medium: 9.407%
- CCNc1ncc(C(=O)N2CCOC(CCCc3ccccc3)C2)cn1 (centres unmarked) : Mtb cholesterol medium: 20.72% & 25.68%; Mtb glucose medium: 13.81%
- CNC(=O)Cc1ccccc1NC(=O)N[C@H]1c2ccccc2C[C@H]1O : Mtb cholesterol medium: 11.07%; Mtb glucose medium: -5.584% & 6.347%
- [H][C@]12CC[C@]([H])(CN(Cc3ccccc3)C1)N(Cc1nnc(C3CC3)o1)C2 : Mtb cholesterol medium: -9.387%; Mtb glucose medium: -53.47%
- CN(CC(F)(F)F)C(=O)CNC(=O)N1CCCC(N(C)C)C1 (centres unmarked) : Mtb cholesterol medium: 11.66%; Mtb glucose medium: 18.22%
- NC(=O)CSc1ccccc1NC(=O)C1CCCCC1 : Mtb cholesterol medium: -12.94%; Mtb glucose medium: -21.08%
- C[C@H](O)CNc1cc(-c2ccccc2)ncn1 : Mtb cholesterol medium: -2.374%; Mtb glucose medium: 9.159%
- COc1ccc2c(C)c(C(=O)NCCCc3csc(N)n3)oc2c1 : Mtb cholesterol medium: -14.57%; Mtb glucose medium: -44.08%
- CCCc1n[nH]c(=O)n1Cc1ccccc1F : Mtb cholesterol medium: 0.237%; Mtb glucose medium: -18.26%
- O=C1COc2cc(S(=O)(=O)NCCC3=CCCCC3)c(Cl)cc2N1 : Mtb cholesterol medium: -17.49%; Mtb glucose medium: -16.71%

Repeated from the top, 3 entries:

- CCCc1nnc2sc(C3CCN(CC)CC3)nn12 | Mtb cholesterol medium: -6.44%; Mtb glucose medium: -5.595% & 6.499%
- CCC(C)Oc1cc(C(=O)Nc2nc(C)ns2)ccn1 (centres unmarked) | Mtb cholesterol medium: 23.55%; Mtb glucose medium: 14.37%
- O=C(O)C(F)(F)F.O=C(O)C(F)(F)F.O=C(O)C(F)(F)F.[H][C@@]12CN(CCOC)C[C@]1([H])[C@@H](OC)CCN2Cc1ccncc1 | Mtb cholesterol medium: 6.963%; Mtb glucose medium: -10.95%

Source: ChEMBL document CHEMBL3988442, “University of Dundee, Small-Polar-MMV Screening Library” (2021).